The assay concerns the target T1, AP-1 µ1 subunit (in the AP-1 core) (UniProt P35585).
T1 sequence: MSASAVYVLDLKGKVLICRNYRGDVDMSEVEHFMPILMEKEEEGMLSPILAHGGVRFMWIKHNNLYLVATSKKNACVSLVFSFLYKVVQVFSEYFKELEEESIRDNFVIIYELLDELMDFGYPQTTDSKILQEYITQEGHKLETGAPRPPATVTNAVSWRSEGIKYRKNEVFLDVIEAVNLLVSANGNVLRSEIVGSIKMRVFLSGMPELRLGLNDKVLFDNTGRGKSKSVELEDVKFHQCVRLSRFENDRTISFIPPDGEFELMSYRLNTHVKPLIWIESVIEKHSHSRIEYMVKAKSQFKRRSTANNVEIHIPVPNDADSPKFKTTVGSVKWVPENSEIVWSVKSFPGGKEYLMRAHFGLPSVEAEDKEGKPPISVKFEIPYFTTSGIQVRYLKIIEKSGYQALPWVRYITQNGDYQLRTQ
The assay is described as follows: cryo-EM structure.

Chains of the proteins cited; added tags and fusions are not shown. Residues count along the entry.
UniProt Q10589, residues 1-21: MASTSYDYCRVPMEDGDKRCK
UniProt P84077, residues 17-181: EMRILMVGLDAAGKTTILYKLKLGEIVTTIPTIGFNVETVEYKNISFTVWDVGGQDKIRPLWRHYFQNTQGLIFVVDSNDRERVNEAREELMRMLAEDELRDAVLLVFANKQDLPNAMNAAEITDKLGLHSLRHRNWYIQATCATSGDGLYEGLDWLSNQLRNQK

Results are given in words; binding and its absence hold for the method and conditions named. Some results given as binding are weak or reduced against the parent protein; the word gives no strength.

For “cytosolic tail of human tetherin (1-21) (from UniProt Q10589 1-21) (domain or fragment)”, the binding result is recorded as “binds”.
As for Arf1-GTP (from UniProt P84077 17-181), the binding result is “binds”.

(Values after article doi:10.1101/276733.)
